Measured values: PubChem BioAssay AID485314 (National Center for Advancing Translational Sciences (NCATS), 2010)
The whole screen tested about 340,000 compounds, of which about 4,500 (1.3%) were called active. Inconclusive means that the source gave no clear call. Such entries were picked first, then a sample of the others. The call rests on the fitted dose curve; in most records, active means well fitted inhibition curve with a large enough effect; inconclusive means small, poorly fitted or top-dose-only effect, or another doubt; inactive means no such curve, though single readings can be large or run the other way. Potencies of inconclusive entries are doubtful fits and often do not repeat.

These molecules were tested against DNA polymerase beta (Homo sapiens) (UniProt P06746) (assay: qHTS Assay for Inhibitors of DNA Polymerase Beta). Details: Pol beta primer extension/strand displacement, fluorescence kinetic; activity change, negative = inhibition: at 114 µM (top of the series).
Procedure, shortened: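 Pol beta (10 nM) was preincubated with compound for 15 min at room temperature. The reaction was then started with 50 nM substrate and read immediately and after a further 10 min at room temperature.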
On the % scale 0 is the no-effect control and ±100 the full control effect; potency means the concentration at half of the fitted maximal effect.

Row | SMILES | Potency | activity change, negative = inhibition
1 | CC(=O)Nc1ccc(NC(=O)c2ccc(-n3c(C)ccc3C)cc2)cc1 | inconclusive: 15.8 µM [inhibitor, full curve] | 
2 | COc1cc(/C=N/Nc2ccc(F)cc2F)cc(OC)c1O | inactive | 
3 | NS(=O)(=O)c1ccc(C(=O)Nc2ccc(-c3nc4cccnc4s3)cc2)cc1 |  | inconclusive: -44.3% [inhibitor]
4 | CN(C)c1ccc(/C=C(/NC(=O)c2ccccc2)C(=O)N/N=C/c2ccc([N+](=O)[O-])c(O)c2)cc1 | inactive | 
5 | CN(CC(=O)Nc1ccc(N2CCOCC2)cc1)C(=O)CSc1ccc(Br)cc1 | inactive | 
6 | O=C(O)c1ccc2cccnc2n1 | inactive | 
7 | COc1ccc2cc(OCC(=O)NNC(=O)Nc3ccc(C(C)=O)cc3)ccc2c1 | inconclusive: 39.8 µM [inhibitor, full curve, poor fit] | 
8 | COc1cc(/C=C2\C(=N)N3N=C(S(C)(=O)=O)SC3=NC2=O)ccc1OCCOc1ccccc1C | active: 50.1 µM | 
9 | O=C(Nc1ccc2oc(-c3ccccc3F)nc2c1)c1ccc([N+](=O)[O-])o1 | active: 11.2 µM | 
10 | CCC(C)(C)NC(=O)C(c1ccc(OC)cc1)N(Cc1ccco1)C(=O)CCC(=O)Nc1cc(C)on1 (stereo not given) | inconclusive: 3.98 µM [inhibitor, full curve] | 
11 | CC1CCc2c(sc3nc(CN4CCOCC4)nc(NS(=O)(=O)c4cccc([N+](=O)[O-])c4)c23)C1 (stereo not given) | inconclusive: 39.8 µM [inhibitor, single point] | 
12 | O=C(CNC(=O)c1ccccc1F)OCc1cc(=O)n2ccsc2n1 | inactive | 
13 | COc1cccc(CNC(=O)C(C(=O)NCc2cccc(OC)c2)c2ncc(C(F)(F)F)cc2Cl)c1 | inconclusive: 50.1 µM [inhibitor, partial curve, poor fit] | 
14 | CCN(CC)C(=O)Cn1c(=O)n(-c2ccc(OC)cc2OC)c(=O)c2c(C)c(C(=O)N(CC)CC)sc21 | inactive | 
15 | COc1ccccc1C(=O)Nc1nnc(SCc2cc(=O)c3cc(Cl)ccc3[nH]2)s1 | active: 3.98 µM | 
16 | c1ccc(-c2nc(C3CCCCC3)no2)cc1 | inconclusive: 89.1 µM [inhibitor, single point] | 
17 | COc1ccc(C(=O)Oc2c(CN3CCOCC3)cc(Cl)c3cccnc23)cc1 | inconclusive: 89.1 µM [inhibitor, single point] | 
18 | O=C(O)CCCN1C(=O)/C(=C\C(Cl)=C\c2ccccc2)SC1=S | inconclusive: 79.4 µM [inhibitor, single point] | 
19 | S=c1[nH]cc(-c2ccccc2)[nH]1 | inactive | 
20 | Cc1ccc(-c2nc(N/N=C/c3ccncc3)c3ccccc3n2)cc1 | inconclusive: 10 µM [inhibitor, partial curve, poor fit] | 

Laid out differently: entries from further up.
CCN(CC)C(=O)Cn1c(=O)n(-c2ccc(OC)cc2OC)c(=O)c2c(C)c(C(=O)N(CC)CC)sc21
  Potency: inactive
COc1ccccc1C(=O)Nc1nnc(SCc2cc(=O)c3cc(Cl)ccc3[nH]2)s1
  Potency: active: 3.98 µM
